According to publication PMC7542355:
No constants are given. Whether binding was seen depends on the method and setting. In cells and extracts the contact can be indirect. Some binding calls cover weakened binding; strength is not graded here.

Protein sequences, listed by entry. Tags and fused reporters are not part of them.
UniProt P62344: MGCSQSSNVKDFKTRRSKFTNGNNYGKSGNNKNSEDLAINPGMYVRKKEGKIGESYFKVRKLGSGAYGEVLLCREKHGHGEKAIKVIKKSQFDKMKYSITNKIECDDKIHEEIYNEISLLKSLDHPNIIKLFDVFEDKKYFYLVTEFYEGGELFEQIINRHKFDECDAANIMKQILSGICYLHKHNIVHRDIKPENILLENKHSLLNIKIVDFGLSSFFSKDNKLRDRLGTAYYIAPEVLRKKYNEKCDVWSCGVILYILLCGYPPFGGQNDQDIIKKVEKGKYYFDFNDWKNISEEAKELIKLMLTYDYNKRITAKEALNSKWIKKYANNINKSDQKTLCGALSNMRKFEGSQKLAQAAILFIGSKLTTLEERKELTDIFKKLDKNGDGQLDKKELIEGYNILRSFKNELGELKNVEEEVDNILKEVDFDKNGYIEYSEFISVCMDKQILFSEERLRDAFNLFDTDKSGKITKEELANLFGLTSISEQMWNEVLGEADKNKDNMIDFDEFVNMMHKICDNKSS

Tests used:
[1] = target: T1, Rhoptry protein RhopH3 (Plasmodium falciparum (endogenous in 3D7 parasites)) (UniProt Q8I395); assay: co-IP; reverse IP: RhopH3 immunoprecipitated with RhopH3 antisera from PfCDPK1-3HA-DD parasite lysate; Western blot with anti-HA; 3D7 parasites as negative control
T1 sequence: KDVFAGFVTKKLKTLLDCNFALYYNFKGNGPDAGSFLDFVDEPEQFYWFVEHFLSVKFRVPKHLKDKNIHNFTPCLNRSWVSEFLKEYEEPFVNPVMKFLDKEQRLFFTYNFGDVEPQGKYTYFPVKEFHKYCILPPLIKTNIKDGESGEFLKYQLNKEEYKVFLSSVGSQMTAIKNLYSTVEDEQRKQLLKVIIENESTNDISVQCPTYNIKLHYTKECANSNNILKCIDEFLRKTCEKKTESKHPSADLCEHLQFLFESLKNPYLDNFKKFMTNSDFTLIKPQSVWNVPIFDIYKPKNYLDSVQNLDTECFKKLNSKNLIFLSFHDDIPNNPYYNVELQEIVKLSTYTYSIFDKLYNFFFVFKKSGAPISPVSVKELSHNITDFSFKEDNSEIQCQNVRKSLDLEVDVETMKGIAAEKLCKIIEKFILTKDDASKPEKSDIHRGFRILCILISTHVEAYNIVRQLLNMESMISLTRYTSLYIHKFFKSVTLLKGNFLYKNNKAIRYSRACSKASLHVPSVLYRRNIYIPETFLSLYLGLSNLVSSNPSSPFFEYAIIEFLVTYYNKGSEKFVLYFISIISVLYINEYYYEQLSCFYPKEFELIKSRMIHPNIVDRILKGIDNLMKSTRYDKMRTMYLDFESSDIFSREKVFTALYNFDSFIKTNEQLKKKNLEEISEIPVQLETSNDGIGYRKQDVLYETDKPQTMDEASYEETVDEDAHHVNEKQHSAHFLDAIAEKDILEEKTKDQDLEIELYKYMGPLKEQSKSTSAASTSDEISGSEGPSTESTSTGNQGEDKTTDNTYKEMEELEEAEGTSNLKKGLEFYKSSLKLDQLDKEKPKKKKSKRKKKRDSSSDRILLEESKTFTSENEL

[2] = target: P. falciparum CDPK1 (PfCDPK1) (Plasmodium falciparum (endogenous in 3D7 parasites)) (UniProt P62344); assay: co-IP; PfCDPK1 immunoprecipitated from 3D7 parasite lysate with anti-PfCDPK1 antisera and protein A/G agarose beads, 4°C, lysis buffer with 1% Triton X-100 and 100 mM NaCl; Western blot for RhopH3 or AMA1

Molecule | binding [1] | binding [2]
PfCDPK1-3HA-DD (from UniProt P62344 1-524) (enzyme) | binds | 
Rhoptry protein RhopH3 (protein, UniProt Q8I395 25-897) KDVFAGFVTKKLKTLLDCNFALYYNFKGNGPDAGSFLDFVDEPEQFYWFVEHFLSVKFRVPKHLKDKNIHNFTPCLNRSWVSEFLKEYEEPFVNPVMKFLDKEQRLFFTYNFGDVEPQGKYTYFPVKEFHKYCILPPLIKTNIKDGESGEFLKYQLNKEEYKVFLSSVGSQMTAIKNLYSTVEDEQRKQLLKVIIENESTNDISVQCPTYNIKLHYTKECANSNNILKCIDEFLRKTCEKKTESKHPSADLCEHLQFLFESLKNPYLDNFKKFMTNSDFTLIKPQSVWNVPIFDIYKPKNYLDSVQNLDTECFKKLNSKNLIFLSFHDDIPNNPYYNVELQEIVKLSTYTYSIFDKLYNFFFVFKKSGAPISPVSVKELSHNITDFSFKEDNSEIQCQNVRKSLDLEVDVETMKGIAAEKLCKIIEKFILTKDDASKPEKSDIHRGFRILCILISTHVEAYNIVRQLLNMESMISLTRYTSLYIHKFFKSVTLLKGNFLYKNNKAIRYSRACSKASLHVPSVLYRRNIYIPETFLSLYLGLSNLVSSNPSSPFFEYAIIEFLVTYYNKGSEKFVLYFISIISVLYINEYYYEQLSCFYPKEFELIKSRMIHPNIVDRILKGIDNLMKSTRYDKMRTMYLDFESSDIFSREKVFTALYNFDSFIKTNEQLKKKNLEEISEIPVQLETSNDGIGYRKQDVLYETDKPQTMDEASYEETVDEDAHHVNEKQHSAHFLDAIAEKDILEEKTKDQDLEIELYKYMGPLKEQSKSTSAASTSDEISGSEGPSTESTSTGNQGEDKTTDNTYKEMEELEEAEGTSNLKKGLEFYKSSLKLDQLDKEKPKKKKSKRKKKRDSSSDRILLEESKTFTSENEL |  | binds
